According to paper PMC11922745, “Reconstitution of SPO11-dependent double-strand break formation” (Nature, 2024):
The exact form of at least one protein or probe is not confirmed. For part of these data: At least one verdict was read from the data and is not stated in words by the source.

Experiments:
[1] = system: SPO11 (beta isoform) + TOP6BL; experiment: EMSA; conditions: Hairpin EMSA: 25 mM Tris-HCl pH 7.5, 100 mM NaCl, 5 mM MgCl2, 7.5% glycerol, 2 mM DTT, 1 mg/ml BSA, 0.1 nM DNA, 30 min 30 C, recombinant protein, protein details: N-terminal Flag-TEV,untagged, label: 5'-32P
[2] = system: SPO11 Y138F + SPO11 E224A + TOP6BL; experiment: gel of covalent complex with or without proteinase K; conditions: 5 mM Mn2+, 5 nM of each mutant complex, SPO11 covalently bound to nicked DNA; covalently closed circle (ligated); recombinant protein; protein details: N-terminal Flag-TEV,N-terminal Flag-TEV,untagged; label: 32P (5' labelled, then ligated); folded or branched DNA

Sequence | binding result ([1]; double-end binding) | other results
TAGCAATGTAATCGTCTATGACG / TACGTCATAGACGATTACATTGC [21 bp double-overhang duplex] |  | binding result ([1]; double-end binding largely or completely restored at higher protein): binds
CGGTTCAAAAGAACCGGAGCTGAATGAAGCCATACCAAACGACGAGCGTGACACAAAAGTGTCACGCTCGTCGTTTGGTATGGCTTCATTCAGCTC |  | binding result [2]: binds
TAGCAATGTAATCGTCTATGACGTGTAGCGC / TAGCGCTACACGTCATAGACGATTACATTGC [29 bp double-overhang duplex] | binds | 
TAGCAATGTAATCGTCTATGACGTGATAGCGC / TAGCGCTATCACGTCATAGACGATTACATTGC [30 bp double-overhang duplex] | binds | 
TAGCAATGTAATCGTCTATGACGTGTCATAGCGC / TAGCGCTATGACACGTCATAGACGATTACATTGC [32 bp double-overhang duplex] | binds | 
TAGCAATGTAATCGTCTATGACGTGCATAGCGC / TAGCGCTATGCACGTCATAGACGATTACATTGC [31 bp double-overhang duplex] | binds | 
